Measured values: patent US20120039805A1, “Therapeutics And Methods For Treating Neoplastic Diseases Comprising Determining The Level Of Caveolin-1 And/Or Caveolin-2 In A Stromal Cell Sample” (PANGEA BIOSCIENCES, INC., priority 2009, published 2012)
For at least one compound, name, drawing or mass did not settle the structure.

Tested on: MDA-MB-231 breast cancer cells co-injected with Cav-1-deficient stromal fibroblasts
Test: Two-component xenograft: nude mice co-injected with MDA-MB-231 cells and Cav-1-deficient stromal fibroblasts, treated with glycolysis inhibitors
Assay type: in vivo
Conditions: given individually, 200 mg/kg; mice co-injected with Cav-1-deficient stromal fibroblasts and MDA-MB-231 cells

O=C(O)C(Cl)Cl [DCA, dichloro-acetate]
effect on tumor growth: no effect on tumor growth
